Test results published in PMC6744409.
These are yes or no findings as the source states them, for the method shown. Binding can be weak; no strength is given. For part of these data: In cells and extracts the contact can be indirect.

Columns and labels:
[1] = molecular target: T1, LptB from Shigella flexneri (subunit of sfLptB2FG / sfLptB2FGC) (Shigella flexneri) (UniProt P0A9V4); assay: cryo-EM structure; sfLptB2FG, LPS-bound (LPS co-purified from E. coli), nucleotide-free, in LMNG, ~1 mg/ml; 3.7 Å overall; both purified
T1 sequence: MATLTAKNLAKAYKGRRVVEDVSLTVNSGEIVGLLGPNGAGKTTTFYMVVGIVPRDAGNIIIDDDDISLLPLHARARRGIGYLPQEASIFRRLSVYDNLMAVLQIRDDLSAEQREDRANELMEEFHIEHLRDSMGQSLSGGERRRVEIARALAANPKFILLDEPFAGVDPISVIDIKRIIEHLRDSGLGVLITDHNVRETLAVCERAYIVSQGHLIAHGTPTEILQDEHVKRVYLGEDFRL

[2] = molecular target: T1, LptB from Shigella flexneri (subunit of sfLptB2FG / sfLptB2FGC) (Shigella flexneri); assay: cryo-EM structure; sfLptB2FGC, LPS-bound, nucleotide-free, in LMNG, ~1 mg/ml; 3.1 Å; both purified
[3] = molecular target: T1, LptB from Shigella flexneri (subunit of sfLptB2FG / sfLptB2FGC) (Shigella flexneri); assay: cryo-EM structure; purified sfLptB2FGC incubated with 5 mM AMP-PNP and 2 mM MgCl2 for 1 h at room temperature, in LMNG; both purified
[4] = molecular target: LptG from Shigella flexneri (subunit of sfLptB2FG / sfLptB2FGC) (Shigella flexneri); assay: cryo-EM structure; sfLptB2FG, LPS-bound (LPS co-purified from E. coli), nucleotide-free, in LMNG, ~1 mg/ml; 3.7 Å overall; both purified
[5] = molecular target: LptG from Shigella flexneri (subunit of sfLptB2FG / sfLptB2FGC) (Shigella flexneri); assay: cryo-EM structure; sfLptB2FGC, LPS-bound, nucleotide-free, in LMNG, ~1 mg/ml; 3.1 Å; both purified
[6] = molecular target: LptG from Shigella flexneri (subunit of sfLptB2FG / sfLptB2FGC) (Shigella flexneri); assay: cryo-EM structure; purified sfLptB2FGC incubated with 5 mM AMP-PNP and 2 mM MgCl2 for 1 h at room temperature, in LMNG; both purified

Measured: binding

LptG from Shigella flexneri (subunit of sfLptB2FG / sfLptB2FGC)
binds: [1] | [2] | [3]

B1: LptF from Shigella flexneri (subunit of sfLptB2FG / sfLptB2FGC) (protein, UniProt P0AFA1 1-366)
chain: MIIIRYLVRETLKSQLAILFILLLIFFCQKLVRILGAAVDGDIPANLVLSLLGLGVPEMAQLILPLSLFLGLLMTLGKLYTESEITVMHACGLSKAVLVKAAMILAVFTAIVAAVNVMWAGPWSSRHQDEVLAEAKANPGMAALAQGQFQQATNGSSVLFIESVDGSDFKDVFLAQIRPKGNARPSVVVADSGHLTQLRDGSQVVTLNQGTRFEGTALLRDFRITDFQDYQAIIGHQAVALDPNDTDQMDMRTLWNTDTDRARAELNWRITLVFTVFMMALMVVPLSVVNPRQGRVLSMLPAMLLYLLFFLIQTSLKSNGGKGKLDPTLWMWTVNLIYLALAIVLNLWDTVPVRRLRASFSRKGAV
binds: [4] | [5] | [6]
